Experimental data from PubChem BioAssay AID256 (DTP/NCI, 2004).
The list shows only some results of the screen, not a fair sample: it is rich in T/C values a quarter to a half above the control, in often repeated tests (any T/C) and in doses without a T/C. Other doses and runs of a compound stand elsewhere. T/C gives the treated animals as a percentage of the vehicle group. Some entries give survivors of the animals treated and no T/C: the source files T/C as zero there, which appears to mark a toxic dose or a test without result, not a measured value. Some doses without a T/C left all or most animals alive at the check, yet need not have been tolerated: the source hardly ever lists a survival T/C far under the control, and the zero likely stands for such cases as well. Survivors were counted at the toxicity check, usually on the fifth day, unless a day is given; later deaths do not show. Schedules are NCI's codes, taken here to give the interval after Q, in days (D) or hours (H), and the number of doses after X. Additions like (4×) say how often a value occurs here. Where survival is the endpoint, the PubChem record calls one and a half times the control and up active, and a quarter to a half above the control has no call in these data; cut-offs in other NCI protocols can differ. Some T/C values are followed by the survivors on the day toxicity was checked, most often the fifth; where none is given, no animal had died by that day.

System: CD2F1 mice, L1210 leukemia ip, survival T/C
Assay: NCI In Vivo Anticancer Drug Screen. Data for tumor model L1210 Leukemia (intraperitoneal) in CD2F1 (CDF1) mice
Details: higher T/C = longer survival
How it was run: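 Tumor-bearing mice (transplanted tumor) were split into treated and vehicle control groups, and the measured endpoint of each treated group was divided by that of its vehicle controls.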

[1] = T/C endpoint: mean survival time, dose: 300.0 mg/kg/injection, schedule: Q01DX001 (ip), vehicle: saline
[2] = T/C endpoint: mean survival time, dose: 200.0 mg/kg/injection, schedule: Q01DX001 (ip), vehicle: saline with Tween-80
[3] = T/C endpoint: mean survival time, dose: 400.0 mg/kg/injection, schedule: Q01DX001 (ip), vehicle: saline with Tween-80
[4] = T/C endpoint: mean survival time, dose: 200.0 mg/kg/injection, schedule: Q04DX002 (ip), vehicle: saline with Tween-80
[5] = T/C endpoint: mean survival time, dose: 200.0 mg/kg/injection, schedule: Q01DX009 (ip), vehicle: saline with Tween-80
[6] = T/C endpoint: mean survival time, dose: 400.0 mg/kg/injection, schedule: Q01DX001 (ip), vehicle: carboxymethylcellulose (CMC)
[7] = T/C endpoint: mean survival time, dose: 400.0 mg/kg/injection, schedule: Q04DX003 (ip), vehicle: saline with Tween-80
[8] = T/C endpoint: mean survival time, dose: 100.0 mg/kg/injection, schedule: Q01DX009 (ip), vehicle: saline
[9] = T/C endpoint: mean survival time, dose: 100.0 mg/kg/injection, schedule: Q04DX002 (ip), vehicle: saline with Tween-80
[10] = T/C endpoint: mean survival time, dose: 400.0 mg/kg/injection, schedule: Q04DX002 (ip), vehicle: saline with Tween-80
[11] = T/C endpoint: mean survival time, dose: 400.0 mg/kg/injection, schedule: Q01DX001 (ip), vehicle: saline

In the case of `NNC(=O)c1ccc(N)cc1`, the survivor count (T/C endpoint: mean survival time, dose: 200.0 mg/kg/injection, schedule: Q04DX003 (ip), vehicle: Klucel (hydroxypropylcellulose) (HPC)) is reported as 5 of 6 and the survivor count (T/C endpoint: mean survival time, dose: 400.0 mg/kg/injection, schedule: Q04DX003 (ip), vehicle: Klucel (hydroxypropylcellulose) (HPC)) is reported as 0 of 6.
With `CN(C)CCC(=O)c1ccc2ccccc2c1` the survivor count (T/C endpoint: mean survival time, dose: 75.0 mg/kg/injection, schedule: Q01DX001 (ip), vehicle: saline) was 0 of 6, the survivor count (T/C endpoint: mean survival time, dose: 150.0 mg/kg/injection, schedule: Q01DX001 (ip), vehicle: saline) was 0 of 6 and the survivor count [1] was 0 of 6.
`O=C1C2=C(Nc3cc([N+](=O)[O-])ccc3N2)OC1c1ccccn1` (stereo not drawn) was tested, and the survivor count (T/C endpoint: median survival time, dose: 200.0 mg/kg/injection, schedule: Q01DX005 (ip), vehicle: Klucel (hydroxypropylcellulose) (HPC)) was 2 of 6.
With `Oc1ccccc1C=NCC1CCCC[N-]1.Oc1ccccc1C=NCC1CCCC[N-]1.[Ni+2]` (stereo not drawn) the T/C [2] was 138 % of control and the survivor count [3] was 2 of 6.
`COc1cc2c(c(OC)c1OC)-c1ccc(OC)c(=O)cc1[C@@H](NC(=O)CF)CC2` was tested, and the T/C (T/C endpoint: mean survival time, dose: 0.09 mg/kg/injection, schedule: Q01DX009 (ip), vehicle: saline) was 130 % of control, the T/C (T/C endpoint: mean survival time, dose: 0.18 mg/kg/injection, schedule: Q01DX009 (ip), vehicle: saline) was 143 % of control and the survivor count (T/C endpoint: mean survival time, dose: 0.75 mg/kg/injection, schedule: Q01DX009 (ip), vehicle: saline) was 1 of 6.
With `O=[N+]([O-])c1ccc(SC2CCC(Cl)C3CCCCC23)c([N+](=O)[O-])c1` (stereo not drawn) the survivor count [4] was 3 of 3.
In the case of `CCCCCCCCC(=O)N(C)OC`, the survivor count [5] is reported as 2 of 6.
`O=c1cn[nH]c2c(Cl)cccc12` was tested, and the survivor count [6] was 1 of 6.
With `COC(=O)C1(C)CCCC2(C)C1CCC13C2CC1C1(C(C)C)OC31` (stereo not drawn) the survivor count [7] was 6 of 6.
For `NC(=S)N/N=C1\c2cc(Cl)ccc2-c2c1cc(Cl)cc2[N+](=O)[O-]`, the survivor count (T/C endpoint: mean survival time, dose: 200.0 mg/kg/injection, schedule: Q01DX001 (ip), vehicle: carboxymethylcellulose (CMC)) was 0 of 4 and the survivor count [6] was 0 of 4.
In the case of `Cc1c(O)ccc([N+](=O)[O-])c1O`, the survivor count (T/C endpoint: mean survival time, dose: 50.0 mg/kg/injection, schedule: Q04DX003 (ip), vehicle: saline with Tween-80) is reported as 2 of 6.
For `C/C=C1/C[C@@H](C)[C@@](C)(O)C(=O)OCC2=CC[N+]3([O-])CC[C@@H](OC1=O)[C@@H]23` (stereo partly drawn), the survivor count [3] was 3 of 6.
In the case of `COC(=O)C1=NC=NC1=[N+]=[N-]`, the survivor count (T/C endpoint: mean survival time, dose: 40.0 mg/kg/injection, schedule: Q01DX001 (ip), vehicle: saline) is reported as 0 of 6.
`CC([NH-])C(=O)O.CC([NH-])C(=O)O.CC([NH-])C(=O)O.[Co+3]` (stereo not drawn) was tested, and the survivor count [8] was 5 of 6, the T/C [9] was 144 % of control and the survivor count [4] was 0 of 3. The survivor count [10] was 0 of 3.
In the case of `O=C1C=CC(=O)N1c1ccc(Br)cc1` (tested in a mixture with another compound), the survivor count (T/C endpoint: mean survival time, dose: 400.0 mg/kg/injection, schedule: Q01DX009 (ip), vehicle: acetone) is reported as 3 of 6.
In the case of `CC1=C2C3OC(=O)C(C)C3CCC2(C)C=CC1=O` (stereo not drawn), the survivor count [10] is reported as 1 of 3.
In the case of `N/C(=N/O)c1cn(C2OC(CO)C(O)C2O)c2nc[nH]c(=O)c12` (stereo not drawn), the survivor count (T/C endpoint: mean survival time, dose: 67.0 mg/kg/injection, schedule: Q01DX009 (ip), vehicle: saline) is reported as 5 of 6, the survivor count [8] is reported as 0 of 6 and the T/C (T/C endpoint: mean survival time, dose: 150.0 mg/kg/injection, schedule: Q01DX001 (ip), vehicle: water) is reported as 128 % of control. For the same compound, the survivor count (T/C endpoint: mean survival time, dose: 150.0 mg/kg/injection, schedule: Q01DX009 (ip), vehicle: saline) was 0 of 6, the survivor count (T/C endpoint: mean survival time, dose: 225.0 mg/kg/injection, schedule: Q01DX009 (ip), vehicle: saline) was 0 of 6 and the survivor count (T/C endpoint: mean survival time, dose: 300.0 mg/kg/injection, schedule: Q01DX001 (ip), vehicle: water) was 0 of 6.
In the case of `O=C1C=C/C(=N\N=C2/C=CC(=O)O2)O1`, the survivor count [9] is reported as 0 of 3 and the survivor count [4] is reported as 0 of 3.
`COC(=O)Nc1ccc(NC(=O)c2cscn2)c(NC(=O)OC)n1` was tested, and the survivor count [7] was 5 of 6.
In the case of `O=C(O)C1C2OC(C(Br)C2Br)C1C(=O)O` (stereo not drawn), the survivor count (T/C endpoint: mean survival time, dose: 200.0 mg/kg/injection, schedule: Q01DX009 (ip), vehicle: saline) is reported as 3 of 6.
`O=N[O-].O=N[O-].O=N[O-].O=N[O-].O=N[O-].O=N[O-].[Co+3].[Co].[NH2-].[NH2-].[NH2-].[NH2-].[NH2-].[NH2-]` was tested, and the survivor count [9] was 1 of 3, the survivor count [4] was 0 of 3 and the survivor count [10] was 0 of 3.
With `CC1=C(N2CC2)C(=O)c2c(COC(N)=O)c3n(c2C1=O)C[C@H]1N[C@@H]31` the T/C (T/C endpoint: mean survival time, dose: 48.0 mg/kg/injection, schedule: Q01DX001 (ip), vehicle: distilled water + Tween-80) was 131 % of control [5 of 6 alive] and the survivor count (T/C endpoint: mean survival time, dose: 96.0 mg/kg/injection, schedule: Q01DX001 (ip), vehicle: distilled water + Tween-80) was 0 of 6.
`CC(Cc1ccccc1)NC1=NCCO1` (stereo not drawn) was tested, and the survivor count [7] was 6 of 6.
In the case of `c1ccc(NCc2nc3ccccc3[nH]2)cc1`, the survivor count (T/C endpoint: mean survival time, dose: 50.0 mg/kg/injection, schedule: Q01DX005 (ip), vehicle: water) is reported as 3 of 6, the survivor count (T/C endpoint: mean survival time, dose: 100.0 mg/kg/injection, schedule: Q01DX005 (ip), vehicle: water) is reported as 0 of 6 and the survivor count (T/C endpoint: mean survival time, dose: 200.0 mg/kg/injection, schedule: Q01DX005 (ip), vehicle: water) is reported as 0 of 6.
For `OC1CNCc2cc3c(cc21)OCO3` (stereo not drawn), the survivor count [11] was 2 of 6.
`CCOc1cc(C(F)(F)F)nc2c3c(cc(OC)c12)CCCN3CC` was tested, and the survivor count [5] was 2 of 6.
For `C[Si](C)(C)OC1(C#N)C=CC(=O)C=C1`, the survivor count (T/C endpoint: mean survival time, dose: 12.5 mg/kg/injection, schedule: Q01DX001 (ip), vehicle: saline with Tween-80) was 0 of 3, the survivor count (T/C endpoint: mean survival time, dose: 25.0 mg/kg/injection, schedule: Q01DX001 (ip), vehicle: saline with Tween-80) was 0 of 3 and the survivor count (T/C endpoint: mean survival time, dose: 100.0 mg/kg/injection, schedule: Q01DX001 (ip), vehicle: saline with Tween-80) was 0 of 3. For the same compound, the survivor count [2] was 0 of 3 and the survivor count [3] was 0 of 3.
`Cn1c(=O)c2c(ncn2C)n(C)c1=O.[Cl][Pt]([Cl])[Cl]` was tested, and the survivor count (T/C endpoint: mean survival time, dose: 200.0 mg/kg/injection, schedule: Q04DX003 (ip), vehicle: water) was 3 of 6.
In the case of `C1CC[N-]CC1.Oc1ccccc1C=NCCN=Cc1ccccc1O.[Co]`, the survivor count (T/C endpoint: mean survival time, dose: 6.25 mg/kg/injection, schedule: Q04DX002 (ip), vehicle: saline with Tween-80) is reported as 1 of 3, the survivor count (T/C endpoint: mean survival time, dose: 25.0 mg/kg/injection, schedule: Q04DX002 (ip), vehicle: saline with Tween-80) is reported as 0 of 3 and the survivor count (T/C endpoint: mean survival time, dose: 50.0 mg/kg/injection, schedule: Q04DX002 (ip), vehicle: saline with Tween-80) is reported as 0 of 3. For the same compound, the survivor count [9] was 0 of 3.
With `COc1cccc(/C=N/[N+](C)(C)C)c1O` the survivor count [11] was 0 of 4.
For `Cc1cccc(C)c1N=C(c1ccccc1)N(O)c1ccccc1`, the survivor count (T/C endpoint: mean survival time, dose: 15.0 mg/kg/injection, schedule: Q01DX001 (ip), vehicle: saline) was 1 of 6 and the survivor count (T/C endpoint: mean survival time, dose: 30.0 mg/kg/injection, schedule: Q01DX001 (ip), vehicle: saline) was 1 of 6.
In the case of `CC(=O)N(C1=CC(=O)c2ccccc2C1=O)c1ccc(C)cc1`, the survivor count [1] is reported as 2 of 6.
With `Cc1c2cnccc2c(C)c2c1c1ccccc1n2CCNCCO` the survivor count (T/C endpoint: mean survival time, dose: 200.0 mg/kg/injection, schedule: Q01DX009 (ip), vehicle: saline sonified) was 3 of 6.
In the case of `CCC(C)C(=O)O[C@H]1C(=O)O[C@@H]2C[C@H]3C(C)=CC(=O)[C@@H](O)[C@]3(C)[C@H]3[C@@H](O)[C@H](O)[C@@]4(C)OC[C@]32[C@@H]14` (stereo partly drawn), the survivor count (T/C endpoint: mean survival time, dose: 8.0 mg/kg/injection, schedule: Q01DX009 (ip), vehicle: saline + alcohol) is reported as 2 of 6 and the survivor count (T/C endpoint: mean survival time, dose: 16.0 mg/kg/injection, schedule: Q01DX009 (ip), vehicle: saline + alcohol) is reported as 0 of 6.
In the case of `CCCCCC(=O)SCC(=O)OCC(=O)[C@]1(O)Cc2c(O)c3c(c(O)c2[C@@H](OC2CC(N)C(O)C(C)O2)C1)C(=O)c1c(OC)cccc1C3=O` (stereo partly drawn), the T/C (T/C endpoint: mean survival time, dose: 1.56 mg/kg/injection, schedule: Q01DX005 (ip), vehicle: water) is reported as 141 % of control, the T/C (T/C endpoint: mean survival time, dose: 3.13 mg/kg/injection, schedule: Q01DX005 (ip), vehicle: water, evaluated on day 30) is reported as 148 % of control and the T/C (T/C endpoint: mean survival time, dose: 3.13 mg/kg/injection, schedule: Q01DX005 (ip), vehicle: water, evaluated on day 45) is reported as 132 % of control. The survivor count (T/C endpoint: mean survival time, dose: 12.5 mg/kg/injection, schedule: Q01DX005 (ip), vehicle: water) was 5 of 6 (2×).
